Test results taken from patent US7238711.
These are yes or no findings as the source states them, for the method shown.

Target: T1, Duffy Antigen Receptor for Chemokines (DARC) (human) (UniProt Q16570)
T1 sequence (looked up): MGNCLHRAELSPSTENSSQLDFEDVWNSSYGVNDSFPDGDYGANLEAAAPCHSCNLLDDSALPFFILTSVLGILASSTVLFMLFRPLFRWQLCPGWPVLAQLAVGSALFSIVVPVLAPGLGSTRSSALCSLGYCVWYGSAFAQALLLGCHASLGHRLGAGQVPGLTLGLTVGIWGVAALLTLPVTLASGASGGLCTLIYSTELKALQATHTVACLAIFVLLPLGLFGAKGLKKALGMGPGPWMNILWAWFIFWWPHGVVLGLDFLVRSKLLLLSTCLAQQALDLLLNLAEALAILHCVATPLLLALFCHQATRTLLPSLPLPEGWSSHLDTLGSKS
Experiment: DARC binding, Table 18

binding: no binding (tested: >100 µM)
Binder: CPKEAV
